From paper PMC7196836, “Molecular analysis of the ribosome recycling factor ABCE1 bound to the 30S post‐splitting complex” (The EMBO Journal, 2020)
No constants are given. Whether binding was seen depends on the method and setting.

Target: ribosomal protein eS24 of Thermococcus celer (T. celer (endogenous in T. celer cells))
Assay: cryo-EM structure; post-splitting complex from 1 nmol T. celer 70S split by ABCE1^IIEA (8 uM), aPelota and aRF1 (5 uM each), 0.5 mM AMP-PNP, 50 mM HEPES-KOH pH 7.5, 30 mM KCl, 10 mM MgCl2, 2 mM DTT, 65 °C 15 min; cross-linked with 1% formaldehyde; 30S fractions of a 10-30% sucrose gradient; both purified

binding: no binding
Substance: ABCE1^IIEA (E238A/E485A), hydrolysis-deficient ABCE1 from Saccharolobus solfataricus (from UniProt Q980K5 1-594) (enzyme)
